Laboratory results: patent publication US6740636B2 (priority 2000, dated 2004)

The chains behind the UniProt entries cited, without tags or fusion partners. Residues count along the entry.
UniProt A6I4C9, 1-355: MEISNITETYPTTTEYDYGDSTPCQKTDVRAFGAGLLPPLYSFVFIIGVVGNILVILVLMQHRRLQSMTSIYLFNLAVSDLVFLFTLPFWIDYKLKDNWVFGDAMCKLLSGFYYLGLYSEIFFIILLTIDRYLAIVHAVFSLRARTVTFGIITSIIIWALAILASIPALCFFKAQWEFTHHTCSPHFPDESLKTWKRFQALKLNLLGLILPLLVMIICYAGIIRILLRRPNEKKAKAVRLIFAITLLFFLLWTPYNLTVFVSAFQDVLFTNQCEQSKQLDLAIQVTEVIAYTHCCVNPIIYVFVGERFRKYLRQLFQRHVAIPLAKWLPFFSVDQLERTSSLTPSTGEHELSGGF

Key:
[1] = rat, in vivo, sc
rat CCR1 receptor = rat CCR1 receptor (Rattus norvegicus, UniProt A6I4C9); experiment: cell-based

Structure (SMILES): C[C@@H]1CN(Cc2ccc(F)cc2)CCN1C(=O)COc1ccc(Cl)cc1NC(N)=O [(2R)-1-((4-chloro-2-(ureido)phenoxy)methyl)carbonyl-2-methyl-4-(4-fluorobenzyl)piperazine]
- Peak plasma levels ([1]; male, Lewis, 50 mg/kg): 12 to 27 µM
- plasma drug levels after 8 hours ([1]; male, Lewis, 50 mg/kg): 1 to 2 µM
- Absorption [1]: relatively rapid
- drug levels over a 24 hour period ([1]; 50 mg/kg): adequate drug levels
- Ki (rat CCR1 receptor): 121 ± 60 nM
